How the values were obtained:
[1] = GC-FID analysis of fatty acids in cell supernatant; set-up: species or system human; conditions: protocol of Example 4a, day 42; differences between media and supernatant
[2] = UHPLC quantification of lactose and human milk oligosaccharides in primary cell supernatant; conditions: day 42, 3D differentiation of hiPSC line 603; estimated limit 0.1 mg/L

| Structure (SMILES) | Detected amount in cell supernatant [1] | amount detected in primary cell supernatants [2] |
| --- | --- | --- |
| CCCCCCCCCCCCCCCCCC(=O)O [C-18:0] | 0.97 mg/100 mL |  |
| CCCCCC/C=C\CCCCCCCC(=O)O [C-16:1n7] | 0.08 mg/100 mL |  |
| CCCCCCCCCCCCCC(=O)O [C-14:0] | 0.44 mg/100 mL |  |
| CCCCCCCC/C=C\CCCCCCCCCC(=O)O [C-20:1 n9] | 0.11 mg/100 mL |  |
| CCCCCCCC/C=C\CCCCCCCC(=O)O [C-18:1 n9] | 18.82 mg/100 mL |  |
| CC/C=C\C/C=C\C/C=C\CCCCCCCC(=O)O [C-18:3 n3] | 0.08 mg/100 mL |  |
| CC(=O)N[C@H]1[C@H]([C@H](O)[C@H](O)CO)O[C@@](OC[C@H]2O[C@@H](O[C@H]3[C@H](O)[C@@H](O)[C@H](O)O[C@@H]3CO)[C@H](O)[C@@H](O)[C@H]2O)(C(=O)O)C[C@@H]1O [6′SL] |  | 0.32 mg/L |
| CCCCCCCCCCCCCCCC(=O)O [C-16:0] | 1.85 mg/100 mL |  |
| CCCCCCCCCC(=O)O [C-10:0] | 0.38 mg/100 mL |  |
| OC[C@H]1O[C@@H](O[C@H]2[C@H](O)[C@@H](O)C(O)O[C@@H]2CO)[C@H](O)[C@@H](O)[C@H]1O (some centres unmarked) [Lactose] |  | 0.22 mg/L |
| CCCCCCCC(=O)O [C-8:0] | 0.49 mg/100 mL |  |
| CCCCCCCCCCCCCCC(=O)O [C-15:0] | 0.41 mg/100 mL |  |
| CCCCCCCCCCCCCCCCCCCCCC(=O)O [C-22:0] | 0.29 mg/100 mL |  |
| CCCCCCCCCCCCCCCCC(=O)O [C-17:0] | 0.09 mg/100 mL |  |
| CCCC(=O)O [C-4:0] | 2.53 mg/100 mL |  |
| CCCCC/C=C\C/C=C\CCCCCCCC(=O)O [C-18:2 n6] | 2.16 mg/100 mL |  |
| CCCCCCCCCCCCCCCCCCCC(=O)O [C-20:0] | 0.13 mg/100 mL |  |
